The values are deposited in ChEMBL (CHEMBL3988442, “University of Dundee, Small-Polar-MMV Screening Library” (2021)).

Sequences of proteins named here, by UniProt entry; tags and fusion partners are left off. Residues count along the entry.
UniProt I6X8D2, whole entry: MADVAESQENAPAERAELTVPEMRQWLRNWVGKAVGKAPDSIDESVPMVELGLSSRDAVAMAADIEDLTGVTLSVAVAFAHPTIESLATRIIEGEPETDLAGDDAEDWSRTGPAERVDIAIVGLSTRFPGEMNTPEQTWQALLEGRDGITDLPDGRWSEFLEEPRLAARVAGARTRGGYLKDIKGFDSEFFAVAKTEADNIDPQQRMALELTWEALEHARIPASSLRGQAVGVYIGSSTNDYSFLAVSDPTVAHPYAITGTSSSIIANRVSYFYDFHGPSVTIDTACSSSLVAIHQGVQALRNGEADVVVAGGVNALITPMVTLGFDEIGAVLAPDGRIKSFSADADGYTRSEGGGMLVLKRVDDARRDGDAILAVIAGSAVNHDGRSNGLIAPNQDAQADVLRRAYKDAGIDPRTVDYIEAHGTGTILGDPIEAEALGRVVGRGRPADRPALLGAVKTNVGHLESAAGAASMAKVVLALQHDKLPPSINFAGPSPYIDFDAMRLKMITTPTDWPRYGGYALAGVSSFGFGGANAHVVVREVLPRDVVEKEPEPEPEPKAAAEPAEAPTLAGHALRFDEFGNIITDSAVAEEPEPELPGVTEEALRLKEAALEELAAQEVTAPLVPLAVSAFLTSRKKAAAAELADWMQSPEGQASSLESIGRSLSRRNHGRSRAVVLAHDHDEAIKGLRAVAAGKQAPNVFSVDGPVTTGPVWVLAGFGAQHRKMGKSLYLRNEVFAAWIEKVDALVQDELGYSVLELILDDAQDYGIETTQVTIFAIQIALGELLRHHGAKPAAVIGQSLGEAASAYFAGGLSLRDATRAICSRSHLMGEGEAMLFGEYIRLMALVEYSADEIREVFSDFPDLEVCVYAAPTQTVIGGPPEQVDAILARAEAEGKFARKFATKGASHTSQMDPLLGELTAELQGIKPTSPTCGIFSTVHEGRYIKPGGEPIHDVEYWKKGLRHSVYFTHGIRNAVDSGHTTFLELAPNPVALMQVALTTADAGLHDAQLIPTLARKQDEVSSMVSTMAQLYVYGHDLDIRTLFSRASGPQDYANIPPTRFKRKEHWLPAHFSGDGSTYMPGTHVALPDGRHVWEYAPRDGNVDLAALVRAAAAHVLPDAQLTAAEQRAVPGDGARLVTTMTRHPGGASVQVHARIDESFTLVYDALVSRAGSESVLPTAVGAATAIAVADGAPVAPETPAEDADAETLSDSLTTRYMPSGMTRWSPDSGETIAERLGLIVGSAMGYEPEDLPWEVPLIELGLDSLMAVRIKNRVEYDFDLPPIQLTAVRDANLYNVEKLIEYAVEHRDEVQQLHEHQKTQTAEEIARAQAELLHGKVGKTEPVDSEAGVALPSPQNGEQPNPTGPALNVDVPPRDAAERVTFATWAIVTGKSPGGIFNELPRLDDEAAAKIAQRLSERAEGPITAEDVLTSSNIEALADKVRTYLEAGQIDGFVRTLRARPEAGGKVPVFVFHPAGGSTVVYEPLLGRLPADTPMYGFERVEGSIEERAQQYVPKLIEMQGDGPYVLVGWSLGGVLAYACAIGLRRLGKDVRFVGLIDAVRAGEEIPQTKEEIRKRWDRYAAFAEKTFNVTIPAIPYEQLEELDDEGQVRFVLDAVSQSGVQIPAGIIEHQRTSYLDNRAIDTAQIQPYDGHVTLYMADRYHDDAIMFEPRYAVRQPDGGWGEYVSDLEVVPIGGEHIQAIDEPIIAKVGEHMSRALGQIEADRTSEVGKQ
UniProt Q8IDJ8, 1-583: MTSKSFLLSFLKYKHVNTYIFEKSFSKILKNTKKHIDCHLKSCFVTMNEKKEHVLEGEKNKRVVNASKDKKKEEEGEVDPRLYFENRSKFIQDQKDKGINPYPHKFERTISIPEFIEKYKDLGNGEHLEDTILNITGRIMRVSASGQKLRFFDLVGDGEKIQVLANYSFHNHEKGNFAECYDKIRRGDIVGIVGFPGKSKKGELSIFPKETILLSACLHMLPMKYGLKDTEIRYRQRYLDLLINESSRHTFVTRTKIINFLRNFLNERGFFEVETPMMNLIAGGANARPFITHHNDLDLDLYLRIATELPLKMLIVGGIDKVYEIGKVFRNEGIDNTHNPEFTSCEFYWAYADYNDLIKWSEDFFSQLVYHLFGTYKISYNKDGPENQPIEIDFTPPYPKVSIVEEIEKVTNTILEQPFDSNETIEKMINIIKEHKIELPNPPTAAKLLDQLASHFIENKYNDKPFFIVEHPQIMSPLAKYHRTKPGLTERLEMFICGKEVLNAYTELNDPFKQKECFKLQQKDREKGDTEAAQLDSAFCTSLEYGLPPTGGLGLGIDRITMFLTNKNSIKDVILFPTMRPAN
UniProt P9WNZ1, whole entry: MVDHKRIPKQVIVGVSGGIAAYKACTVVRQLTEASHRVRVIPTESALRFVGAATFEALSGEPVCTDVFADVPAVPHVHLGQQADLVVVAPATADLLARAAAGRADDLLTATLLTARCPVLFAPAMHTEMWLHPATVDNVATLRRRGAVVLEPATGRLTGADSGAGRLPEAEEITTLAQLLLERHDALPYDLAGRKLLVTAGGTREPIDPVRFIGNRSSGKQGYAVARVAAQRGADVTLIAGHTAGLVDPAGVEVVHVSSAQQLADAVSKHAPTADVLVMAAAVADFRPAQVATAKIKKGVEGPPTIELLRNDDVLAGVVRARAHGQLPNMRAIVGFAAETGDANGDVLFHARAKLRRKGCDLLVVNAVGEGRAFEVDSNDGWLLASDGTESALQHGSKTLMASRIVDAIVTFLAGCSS

Pks13 thioesterase: 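Enzyme assay of the thioesterase domain of polyketide synthase 13; the read-out is not stated. Target: Polyketide synthase Pks13, Mycobacterium tuberculosis (UniProt I6X8D2). Tested at 30 µM. The record gives no direction; the compounds picked for IC50 retests had high values, so higher reads as stronger inhibition. Of about 67,000 compounds tested this way, about 300 (0.46%) reached 50% or more in at least one test.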
PfKRS1: 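Lysine-tRNA ligase, Plasmodium falciparum 3D7 (UniProt Q8IDJ8). Enzyme assay of the cytosolic lysyl-tRNA synthetase in 384-well plates, read by luminescence. Concentration: 30 µM. Direction is inferred from only a few compounds that gave an IC50; most scored high, so higher reads as stronger inhibition. Of about 69,000 compounds tested this way, about 49 (0.071%) reached 50% or more in at least one test.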
CoaBC: 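Coenzyme A biosynthesis protein CoaBC, Mycobacterium tuberculosis (UniProt P9WNZ1). Enzyme assay of CoaBC with a phosphate dye (Biomol Green) read at 650 nm. Concentration: 30 µM. Higher reads as stronger inhibition, judged from the few compounds that gave an IC50. Most strong results did not repeat in a second test. Size under these conditions: about 67,000 compounds, about 40 of them at 50% or above in at least one test.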

The filed quantity is “Percent Effect” (%). The controls that fix the scale are not given in the record; negative values are as filed. Compounds were drawn at random from those tested, without regard to their results. A dash means the value is not listed here; it may have been measured.

Compound | Pks13 thioesterase | PfKRS1 | CoaBC
CN1CCN(CC2CCN(C(=O)CCC3CCCCC3)CC2)CC1 | -2.065 | 4.907 | 4.822
Nc1cc2c(nn1)CCN(C(=O)CCc1ccc3c(c1)OCO3)C2 | 10.6 | 5.153 | 7.269
CC(Cn1cccn1)NC(=O)Nc1ccccn1 (stereo not shown) | - | 2.282 | 3.345
Cc1noc(C2CCC3(CCN(C(=O)c4cnccn4)CC3)O2)n1 (stereo not shown) | -29.89 | 4.376 | -6.667
NC(=O)Nc1cccc(C(=O)N(Cc2ccncc2)C2CC2)c1 | -5.96 | 0.9356 | 1.739
Cc1csc(CN2CC[C@H]3C[C@@H](c4noc(C)n4)O[C@@H]3C2)n1 | -10.58 | 2.774 | 6.042
Cn1cc(N2C[C@@H]3CN(Cc4ccoc4)C[C@@H]3C2=O)cn1 | -28 | 6.116 | -6.362
CSCCC(NC(N)=O)C(=O)NCc1ccc(-n2cccn2)cc1 (stereo not shown) | 6.248 | 5.451 | 1.35
Cc1csc(CNC(=O)NC(C)c2ccc3c(c2)CCC(=O)N3)n1 (stereo not shown) | -3.591 | 0.4841 | 4.062
CC(C)c1nn(C)c(N(C)C)c1CNC1CCC(O)CC1 (stereo not shown) | - | 5.545 | 1.966
Cc1cccc(CN2C[C@H]3CC[C@@H]2CN(Cc2[nH]cnc2C)C3)n1 | -12.12 | 3.152 | 3.354
O=C(c1cc[nH]n1)N1CCN(C(c2ccccc2)C(F)(F)F)CC1 (stereo not shown) | -10.81 | 5.388 | 7.143
Cc1cccnc1C(Cc1ccsc1)NC(=O)Cn1cccnc1=O (stereo not shown) | -6.285 | 2.101 | 1.211
CC(C(=O)NC(C)(C)C)N1CCC(C(=O)Nc2cnccn2)CC1 (stereo not shown) | -23.01 | 1.265 | 2.288
O=C1N(CCC2CCCCC2)CCCC1(O)CNCCc1ccccc1 (stereo not shown) | 25.18 | 5.552 | 1.327
Cc1nnc2n1CCN(C(=O)c1cn(-c3ccc(F)cc3)nn1)C2 | -8.608 | 0.6769 | 7.593
O[C@@]1(CNCCOc2ccccc2)CCCN2CCCC[C@@H]21 | -6.463 | -1.42 | 2.112
O=C(NCC1(c2ccc(F)cc2)CCC1)N1CCC2(C1)OCCO2 | -34.65 | 4.68 | 4.538
CCCn1nc(C)c(CNC(=O)C2COc3c(cccc3OC)C2)c1C (stereo not shown) | -13.39 | 3.556 | 4.086
COCCN1CCN(CCS(=O)(=O)c2cccc(OC)c2)CC1 | 0.0466 | 1.588 | -1.124
CC(C)NC(=O)c1ccc2c(c1)C(c1nc[nH]n1)CN2C (stereo not shown) | -15.86 | -1.036 | -0.7246
CC(=O)N1CCC(c2ccnc(Nc3cncnc3)n2)CC1 | -14.77 | 7.384 | 0
CCSc1cc(C(=O)NC2CCN(C(=O)c3ccccc3)CC2)ccn1 | 3.655 | 3.85 | 3.562
CCc1nnc(Nc2cc(C)nc(C3CCN(c4cnccn4)C3)n2)s1 (stereo not shown) | 2.703 | 1.327 | 3.263
COc1ccccc1NC(=O)CCNC(=O)c1ccoc1 | 12.66 | 1.469 | 3.38
C[C@H](N)C(=O)N1CCC(c2[nH]ncc2-c2ccccc2)CC1 | -7.133 | 2.862 | -16.83
CCC1=NC(SCC(=O)c2ccc(Cl)cc2)c2cc(CC)sc2N1 (stereo not shown) | - | 3.233 | -3.926
Cc1cnc2c(S(=O)(=O)NC3CCS(=O)(=O)C3)cccc2c1 (stereo not shown) | -21.8 | 0.1588 | 4.042
Cc1ccc(NC2CCN(C(=O)Cc3cccc(F)c3)CC2)nn1 | -13.3 | -0.5057 | 1.068
O=c1ccc2c([nH]1)CCC(NCc1ccc(F)cc1)C2 (stereo not shown) | -5.081 | -2.292 | -1.235
COCCN1CCN(c2ccc(C)nn2)Cc2ccc(C)nc21 | -7.34 | 2.555 | 9.777
CNS(=O)(=O)CC(=O)N(Cc1c(F)cccc1F)C1CCCC1 | -11.9 | 4.596 | -2.539
COc1cccc(C(=O)NCc2ccccc2S(=O)(=O)N(C)CCO)c1 | -37.28 | 4.894 | -6.291
Cc1cc(C[C@@H]2COC[C@@H]2NC(=O)CN2CCCCCC2)on1 | 13.51 | 7.159 | 1.852
COC(=O)CSCc1nc(-c2ccc(Cl)cc2)no1 | 10.45 | -2.125 | -2.331
Cc1noc(C)c1CN1CC2(CCCCN2C)CC1=O (stereo not shown) | -2.57 | -3.925 | -5.285
CN(C)C(=O)C1CN(Cc2c[nH]cn2)CCN(C2CCOCC2)C1 (stereo not shown) | -38.03 | 3.422 | 3.333
CCC(O)(CNCc1cc[nH]n1)c1ccc(Br)cc1 (stereo not shown) | -0.04715 | 4.219 | 6.374
CC(C)CNC(=O)c1cccc(CN2CCc3c(ncn3C)C2)c1 | -9.376 | 1.855 | 4.348
OC(c1ccccc1)c1cn(C2CCN(Cc3nccs3)CC2)nn1 (stereo not shown) | -21.94 | 1.789 | -3.674
CN(Cc1nc(-c2ccoc2)no1)C1CCCN(c2cccnn2)C1 (stereo not shown) | 6.56 | 0.8576 | -0.2273
CC(C)C(=O)N1CCN(Cc2cc(-c3ccncc3)nn2C)CC1 | -15.3 | 1.722 | 5.556
CCc1sc(C(=O)NC2CC2)cc1C | -33.09 | -3.477 | 5.785
CNC(=O)[C@@]12CCC3(CCN(C(C)=O)CC3)[C@@H]1CN(S(C)(=O)=O)C2 | -7.996 | 2.39 | -0.8811
CC(C)Oc1ccc(CN2CCCC(N3CCCC3)C2)cc1CO (stereo not shown) | 2.581 | 0.1747 | -5.383
Cc1csc2c(N3CCNC(C(=O)N4CCCC4)C3)ncnc12 (stereo not shown) | -12.68 | 0.8701 | 10.61
CCC[C@H]1CN(Cc2cscn2)C[C@@H]1NC(=O)C1(COC)CCC1 | -12.83 | -0.2531 | -
O=C(COc1cccc2c1CCC2=O)NCc1ccccc1Cl | -2.521 | 3.843 | -5.785

For reference, 5 entries once more:

Compound,Pks13 thioesterase,PfKRS1,CoaBC
CCSc1cc(C(=O)NC2CCN(C(=O)c3ccccc3)CC2)ccn1,3.655,3.85,3.562
OC(c1ccccc1)c1cn(C2CCN(Cc3nccs3)CC2)nn1 (stereo not shown),-21.94,1.789,-3.674
Cc1ccc(NC2CCN(C(=O)Cc3cccc(F)c3)CC2)nn1,-13.3,-0.5057,1.068
Nc1cc2c(nn1)CCN(C(=O)CCc1ccc3c(c1)OCO3)C2,10.6,5.153,7.269
CNC(=O)[C@@]12CCC3(CCN(C(C)=O)CC3)[C@@H]1CN(S(C)(=O)=O)C2,-7.996,2.39,-0.8811